The results in this text go back to US20040077828A1.

No constants are given. Whether binding was seen depends on the method and setting. Binding calls can cover weak binding; strength is not graded here.

For the experiment, the target named is recombinant soluble TNF-related apoptosis-inducing ligand (TRAIL), PeproTech. The experiment in a line: ELISA.

B1: recombinant mouse sFRP-2 (protein, UniProt P97299 25-295, looked up)
chain: LFLFGQPDFSYKRSNCKPIPANLQLCHGIEYQNMRLPNLLGHETMKEVLEQAGAWIPLVMKQCHPDTKKFLCSLFAPVCLDDLDETIQPCHSLCVQVKDRCAPVMSAFGFPWPDMLECDRFPQDNDLCIPLASSDHLLPATEEAPKVCEACKTKNEDDNDIMETLCKNDFALKIKVKEITYINRDTKIILETKSKTIYKLNGVSERDLKKSVLWLKDSLQCTCEEMNDINAPYLVMGQKQGGELVITSVKRWQKGQREFKRISRSIRKLQC
Consider B1, for which the binding result was “binds”.
